According to patent publication US20160029683A1, “LOW CALORIE INFANT FORMULA CONTAINING BETA-HYDROXY-BETA-METHYLBUTYRIC ACID” (ABBOTT LABORATORIES, priority 2013, published 2016):

Legend:
Format in all cases: in vivo, neonatal pigs
[1] = Plasma glucose concentrations in HMB-infused piglets
Procedure: (§1) Overnight fasted neonatal pigs (5-7 days old) were infused with HMB with 0, 20, 100, or 400 μmol·kg^−1·hr^−1 HMB. Blood plasma concentrations of the following circulating substrates were measured. HMB was measured using gas chromatography per the method set forth in: Nissen, Steven (1990). Analysis of β-Hydroxy-β-methyl Butyrate in Plasma by Gas […] Chromatography and Mass Spectrometry Analytical Biochemistry 188, 17-19.

[2] = Plasma concentrations of alpha-keto acids of branched chain amino acids in HMB-infused piglets; conditions: infusion of 20, 100 or 400 μmol·kg^−1·hour^−1 HMB
Procedure: as §1, with “17-19. Alpha-keto acids of branched chain amino acids (i.e., a-ketoisocaproic acid (KIC, the α-keto acid of leucine), α-ketoisovalerate (KIV, the α-keto acid of valine) and α-ketomethylvalerate (KMV, the α-keto acid of isoleucine)) were measured by high pressure liquid chromatography using the method set forth in: Nissen, S. L. (1982). Measurement of branched chain amino acids and branched chain alpha-ketoacids in plasma by high performance liquid chromatography. J Chromatog 232, 170-175.” for “17-19.”

[3] = Plasma amino acid concentrations (leucine, BCAA, EAA, NEAA) in HMB-infused piglets; conditions: infusion of 20, 100 or 400 μmol·kg^−1·hour^−1 HMB for one hour
Procedure: as §1, with “17-19. Amino acids including leucine, other branched-chain amino acids (BCAA), essential amino acids (EAA) and nonessential amino acids (NEAA) were determined using high pressure liquid chromatography using the method set forth in: Davis TA(1993). Enhanced response of muscle protein synthesis and plasma insulin to food intake in suckled rats. Am J Physiol Regul Integr Comp Physiol 265:R334-R340.” for “17-19.”

**Q.** What does the source list for CC(C)(O)CC(=O)O [HMB, beta-hydroxy-beta-methylbutyric acid]?
**A.** plasma glucose concentration ([1]; infusion of 20 μmol·kg^−1·hour^−1 HMB for one hour): modestly, but significantly (P<0.5), increased; plasma glucose concentration ([1]; infusion of 400 μmol·kg^−1·hour^−1 HMB for one hour): modestly, but significantly (P<0.5), increased; circulating concentration of KIC [2]: no impact; circulating concentration of KIV [2]: no impact; circulating concentration of KMV [2]: no impact; plasma concentration of BCAA [3]: no effect; plasma concentration of EAA [3]: no effect; plasma concentration of NEAA [3]: no effect; plasma concentration of leucine [3]: no effect
